According to the supplement of paper PMC6411743:
± gives the standard deviation of the averaged measurements. The list shows a part of the results.

Chains of the proteins cited; added tags and fusions are not shown. Lines headed by an entry give the natural chain unless they say otherwise; changes in a name come on top.
UniProt P40121: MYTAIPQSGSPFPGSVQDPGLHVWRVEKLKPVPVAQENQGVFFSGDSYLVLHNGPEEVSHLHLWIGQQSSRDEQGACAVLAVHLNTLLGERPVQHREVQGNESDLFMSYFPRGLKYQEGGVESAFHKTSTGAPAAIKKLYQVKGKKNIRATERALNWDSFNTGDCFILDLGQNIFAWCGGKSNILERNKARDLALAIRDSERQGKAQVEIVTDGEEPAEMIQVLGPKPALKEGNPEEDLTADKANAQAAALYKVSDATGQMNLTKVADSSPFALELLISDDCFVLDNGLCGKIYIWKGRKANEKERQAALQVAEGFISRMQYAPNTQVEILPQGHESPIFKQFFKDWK
UniProt P49748: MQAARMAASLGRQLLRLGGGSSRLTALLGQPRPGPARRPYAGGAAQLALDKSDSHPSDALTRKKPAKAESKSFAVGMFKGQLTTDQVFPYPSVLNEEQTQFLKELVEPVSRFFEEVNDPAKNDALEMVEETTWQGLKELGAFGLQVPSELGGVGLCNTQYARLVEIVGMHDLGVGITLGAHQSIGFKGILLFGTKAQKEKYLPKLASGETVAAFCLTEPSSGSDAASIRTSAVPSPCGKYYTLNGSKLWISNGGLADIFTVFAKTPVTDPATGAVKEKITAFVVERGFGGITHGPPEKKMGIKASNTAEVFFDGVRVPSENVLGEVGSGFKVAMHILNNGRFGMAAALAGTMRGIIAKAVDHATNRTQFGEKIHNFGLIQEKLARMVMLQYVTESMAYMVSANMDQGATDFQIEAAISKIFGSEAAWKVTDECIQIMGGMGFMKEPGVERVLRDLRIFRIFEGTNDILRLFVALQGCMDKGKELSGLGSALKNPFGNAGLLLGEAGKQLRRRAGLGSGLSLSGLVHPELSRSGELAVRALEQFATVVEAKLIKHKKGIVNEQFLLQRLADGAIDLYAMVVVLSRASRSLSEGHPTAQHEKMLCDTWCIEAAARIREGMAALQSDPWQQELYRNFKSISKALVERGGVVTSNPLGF
UniProt P35573: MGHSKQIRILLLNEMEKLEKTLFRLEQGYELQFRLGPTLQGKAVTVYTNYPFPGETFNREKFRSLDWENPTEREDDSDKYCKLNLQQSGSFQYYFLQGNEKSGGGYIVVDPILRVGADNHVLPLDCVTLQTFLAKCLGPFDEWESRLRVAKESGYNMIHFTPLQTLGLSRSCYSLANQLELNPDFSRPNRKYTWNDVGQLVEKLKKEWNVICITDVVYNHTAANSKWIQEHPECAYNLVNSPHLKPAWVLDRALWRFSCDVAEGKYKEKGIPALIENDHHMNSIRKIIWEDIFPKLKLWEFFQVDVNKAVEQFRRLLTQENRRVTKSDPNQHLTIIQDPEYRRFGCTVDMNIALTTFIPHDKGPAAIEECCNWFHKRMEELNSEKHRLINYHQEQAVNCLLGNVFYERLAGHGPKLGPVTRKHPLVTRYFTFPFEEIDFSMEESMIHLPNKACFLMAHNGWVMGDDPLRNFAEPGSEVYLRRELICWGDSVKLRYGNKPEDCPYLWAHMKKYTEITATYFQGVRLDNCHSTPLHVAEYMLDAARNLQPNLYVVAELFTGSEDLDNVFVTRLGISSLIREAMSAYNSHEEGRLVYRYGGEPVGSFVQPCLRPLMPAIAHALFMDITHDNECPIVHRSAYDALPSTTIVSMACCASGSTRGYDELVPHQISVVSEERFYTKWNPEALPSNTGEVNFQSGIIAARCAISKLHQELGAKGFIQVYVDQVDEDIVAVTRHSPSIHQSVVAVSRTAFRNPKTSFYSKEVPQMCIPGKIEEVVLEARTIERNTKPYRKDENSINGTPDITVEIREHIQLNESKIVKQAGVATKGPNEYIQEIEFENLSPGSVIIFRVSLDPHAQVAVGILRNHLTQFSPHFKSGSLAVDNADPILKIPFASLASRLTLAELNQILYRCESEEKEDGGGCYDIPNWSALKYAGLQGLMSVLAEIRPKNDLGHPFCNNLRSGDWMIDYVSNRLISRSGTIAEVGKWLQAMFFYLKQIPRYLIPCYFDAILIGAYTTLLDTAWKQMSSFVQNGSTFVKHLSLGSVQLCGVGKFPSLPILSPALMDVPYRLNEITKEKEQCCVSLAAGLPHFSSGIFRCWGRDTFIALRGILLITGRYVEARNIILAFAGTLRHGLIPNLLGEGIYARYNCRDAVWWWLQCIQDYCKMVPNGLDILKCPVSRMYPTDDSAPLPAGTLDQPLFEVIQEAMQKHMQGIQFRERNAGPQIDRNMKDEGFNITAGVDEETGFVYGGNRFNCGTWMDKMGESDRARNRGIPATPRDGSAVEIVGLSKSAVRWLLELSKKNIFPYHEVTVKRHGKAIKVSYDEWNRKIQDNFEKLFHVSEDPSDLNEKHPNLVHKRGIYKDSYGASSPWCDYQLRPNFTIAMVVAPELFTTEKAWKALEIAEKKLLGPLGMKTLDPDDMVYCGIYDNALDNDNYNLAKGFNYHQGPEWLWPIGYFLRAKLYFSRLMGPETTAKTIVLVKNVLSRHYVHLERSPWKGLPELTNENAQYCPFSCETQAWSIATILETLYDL
UniProt P41208: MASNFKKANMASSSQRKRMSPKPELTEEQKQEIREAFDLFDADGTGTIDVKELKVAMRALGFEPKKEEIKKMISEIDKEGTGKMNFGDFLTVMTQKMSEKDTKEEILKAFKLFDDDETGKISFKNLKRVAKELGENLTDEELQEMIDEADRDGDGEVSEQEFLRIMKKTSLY
UniProt P42285: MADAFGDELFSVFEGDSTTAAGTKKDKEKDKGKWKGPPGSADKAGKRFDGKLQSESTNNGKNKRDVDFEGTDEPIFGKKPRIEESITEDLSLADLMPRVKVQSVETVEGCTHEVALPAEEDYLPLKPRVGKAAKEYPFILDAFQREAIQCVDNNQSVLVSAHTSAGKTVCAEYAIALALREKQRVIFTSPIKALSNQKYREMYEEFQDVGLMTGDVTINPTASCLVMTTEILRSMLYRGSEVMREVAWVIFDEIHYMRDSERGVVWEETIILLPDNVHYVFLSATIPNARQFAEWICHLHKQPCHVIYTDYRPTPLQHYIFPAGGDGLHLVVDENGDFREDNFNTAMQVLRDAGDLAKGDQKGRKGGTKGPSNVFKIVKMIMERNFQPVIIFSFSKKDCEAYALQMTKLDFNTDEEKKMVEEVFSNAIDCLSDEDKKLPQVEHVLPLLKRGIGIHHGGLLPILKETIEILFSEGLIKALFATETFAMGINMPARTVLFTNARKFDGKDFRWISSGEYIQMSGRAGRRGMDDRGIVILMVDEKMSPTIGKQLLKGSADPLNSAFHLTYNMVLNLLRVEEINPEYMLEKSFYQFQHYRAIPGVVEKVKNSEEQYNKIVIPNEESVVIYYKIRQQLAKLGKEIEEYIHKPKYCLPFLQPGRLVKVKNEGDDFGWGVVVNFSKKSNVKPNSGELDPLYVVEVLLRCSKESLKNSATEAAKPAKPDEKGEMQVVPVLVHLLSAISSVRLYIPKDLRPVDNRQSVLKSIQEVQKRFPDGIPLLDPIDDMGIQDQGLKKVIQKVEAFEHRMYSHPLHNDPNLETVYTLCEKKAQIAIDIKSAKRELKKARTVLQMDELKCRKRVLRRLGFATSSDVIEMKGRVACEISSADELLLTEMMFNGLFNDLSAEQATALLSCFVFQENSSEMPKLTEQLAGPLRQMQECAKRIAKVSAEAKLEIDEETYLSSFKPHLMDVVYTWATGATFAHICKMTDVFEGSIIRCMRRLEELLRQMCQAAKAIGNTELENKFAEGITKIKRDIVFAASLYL
UniProt P48059, whole entry: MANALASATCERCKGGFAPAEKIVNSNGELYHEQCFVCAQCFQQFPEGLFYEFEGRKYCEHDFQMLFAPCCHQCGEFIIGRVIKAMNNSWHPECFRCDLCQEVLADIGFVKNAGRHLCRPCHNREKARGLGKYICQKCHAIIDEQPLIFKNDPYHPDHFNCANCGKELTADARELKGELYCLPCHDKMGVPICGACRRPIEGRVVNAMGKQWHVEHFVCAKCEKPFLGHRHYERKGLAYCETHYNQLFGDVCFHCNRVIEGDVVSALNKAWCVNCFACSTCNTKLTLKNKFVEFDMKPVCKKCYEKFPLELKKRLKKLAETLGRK
UniProt P38919, whole entry: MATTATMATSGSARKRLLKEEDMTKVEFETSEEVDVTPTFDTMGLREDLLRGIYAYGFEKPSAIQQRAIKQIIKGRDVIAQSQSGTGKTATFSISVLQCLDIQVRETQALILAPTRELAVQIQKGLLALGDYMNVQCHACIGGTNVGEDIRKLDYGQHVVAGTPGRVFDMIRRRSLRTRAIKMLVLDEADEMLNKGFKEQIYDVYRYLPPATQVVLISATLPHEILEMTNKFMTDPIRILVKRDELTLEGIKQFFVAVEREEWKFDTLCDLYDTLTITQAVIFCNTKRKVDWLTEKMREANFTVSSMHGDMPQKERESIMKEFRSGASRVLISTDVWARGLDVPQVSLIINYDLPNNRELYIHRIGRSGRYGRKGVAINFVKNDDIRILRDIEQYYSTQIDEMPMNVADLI
UniProt P45974: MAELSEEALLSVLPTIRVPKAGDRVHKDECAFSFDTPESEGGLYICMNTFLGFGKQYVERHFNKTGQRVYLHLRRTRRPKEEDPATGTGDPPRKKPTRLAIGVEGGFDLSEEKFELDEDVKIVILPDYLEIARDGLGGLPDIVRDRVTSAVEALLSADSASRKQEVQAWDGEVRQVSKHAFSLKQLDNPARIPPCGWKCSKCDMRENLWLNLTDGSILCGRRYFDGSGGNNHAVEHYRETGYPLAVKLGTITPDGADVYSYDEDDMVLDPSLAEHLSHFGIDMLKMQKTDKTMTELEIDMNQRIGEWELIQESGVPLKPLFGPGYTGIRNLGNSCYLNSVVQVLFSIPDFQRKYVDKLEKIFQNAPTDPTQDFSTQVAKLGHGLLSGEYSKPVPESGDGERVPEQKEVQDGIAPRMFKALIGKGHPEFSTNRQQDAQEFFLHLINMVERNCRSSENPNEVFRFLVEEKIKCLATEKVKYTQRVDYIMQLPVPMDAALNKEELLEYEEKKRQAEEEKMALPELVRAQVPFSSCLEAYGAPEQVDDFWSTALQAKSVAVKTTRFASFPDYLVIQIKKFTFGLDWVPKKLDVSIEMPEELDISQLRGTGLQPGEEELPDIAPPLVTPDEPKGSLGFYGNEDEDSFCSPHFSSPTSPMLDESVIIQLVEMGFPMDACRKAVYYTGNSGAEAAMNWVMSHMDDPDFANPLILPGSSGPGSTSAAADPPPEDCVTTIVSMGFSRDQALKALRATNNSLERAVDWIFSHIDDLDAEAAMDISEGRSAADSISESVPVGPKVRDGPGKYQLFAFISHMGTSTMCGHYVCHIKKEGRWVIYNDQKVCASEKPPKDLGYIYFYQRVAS
UniProt P42025, whole entry: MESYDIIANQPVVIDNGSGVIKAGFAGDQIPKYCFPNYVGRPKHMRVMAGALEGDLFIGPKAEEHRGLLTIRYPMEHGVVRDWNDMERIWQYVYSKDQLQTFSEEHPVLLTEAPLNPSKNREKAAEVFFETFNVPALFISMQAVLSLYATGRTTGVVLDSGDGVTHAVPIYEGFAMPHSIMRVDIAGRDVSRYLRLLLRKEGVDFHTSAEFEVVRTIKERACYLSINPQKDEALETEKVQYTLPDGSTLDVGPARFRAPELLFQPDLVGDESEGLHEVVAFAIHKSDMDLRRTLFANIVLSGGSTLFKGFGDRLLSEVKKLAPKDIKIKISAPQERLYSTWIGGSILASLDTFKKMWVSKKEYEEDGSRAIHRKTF
UniProt P42226: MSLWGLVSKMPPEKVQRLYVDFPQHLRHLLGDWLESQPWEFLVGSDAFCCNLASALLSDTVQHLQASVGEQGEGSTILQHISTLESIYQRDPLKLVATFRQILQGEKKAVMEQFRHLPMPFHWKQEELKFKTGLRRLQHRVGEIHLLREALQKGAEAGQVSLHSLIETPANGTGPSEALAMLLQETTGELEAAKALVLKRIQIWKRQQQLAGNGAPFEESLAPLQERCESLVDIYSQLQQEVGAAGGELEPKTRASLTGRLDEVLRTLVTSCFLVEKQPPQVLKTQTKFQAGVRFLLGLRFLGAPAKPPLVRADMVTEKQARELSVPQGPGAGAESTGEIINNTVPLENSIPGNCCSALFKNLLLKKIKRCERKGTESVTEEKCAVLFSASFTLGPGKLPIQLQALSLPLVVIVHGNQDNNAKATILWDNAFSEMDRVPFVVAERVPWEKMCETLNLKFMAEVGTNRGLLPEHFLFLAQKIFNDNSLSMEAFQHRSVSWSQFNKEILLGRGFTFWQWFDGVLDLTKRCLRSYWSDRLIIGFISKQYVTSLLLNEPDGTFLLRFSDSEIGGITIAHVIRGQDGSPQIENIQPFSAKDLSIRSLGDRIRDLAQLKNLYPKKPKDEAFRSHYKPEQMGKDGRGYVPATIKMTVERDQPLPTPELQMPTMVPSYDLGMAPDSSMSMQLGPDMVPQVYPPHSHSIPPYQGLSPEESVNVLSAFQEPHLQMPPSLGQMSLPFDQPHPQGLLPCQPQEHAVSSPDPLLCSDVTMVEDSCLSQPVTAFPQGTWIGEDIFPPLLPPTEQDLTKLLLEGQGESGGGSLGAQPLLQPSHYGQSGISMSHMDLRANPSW

Compound: Nc1nc2c(ncn2[C@@H]2O[C@H](COP(=O)(O)OP(=O)(O)OP(=O)(O)O)[C@@H](O)[C@H]2O)c(=O)[nH]1 [guanosine triphosphate]
Assay: NP40-soluble protein abundance relative to vehicle (solubility fold change) (ratio); higher = more soluble protein in presence of GTP
Method in brief: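 Data come from three independent experiments in which Dounce-homogenised Jurkat crude lysate was treated at eight concentrations from 0.1 to 10 mM. Treatment ran 10 min at room temperature and then 3 min at 37 °C, after which 0.8% NP40 and benzonase were added for 60 min at 4 °C before ultracentrifugation. The supernatant underwent TMT labelling and LC-MS/MS, and vsn-normalised intensities were expressed as fold change against the detergent-processed vehicle in each replicate.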

Target	NP40-soluble protein abundance (concentration: 0.1mM)	NP40-soluble protein abundance (concentration: 0.5mM)	NP40-soluble protein abundance (concentration: 1mM)	NP40-soluble protein abundance (concentration: 2mM)	NP40-soluble protein abundance (concentration: 4mM)	NP40-soluble protein abundance (concentration: 6mM)	NP40-soluble protein abundance (concentration: 8mM)	NP40-soluble protein abundance (concentration: 10mM)
CAPG (UniProt P40121)	0.925 ± 0.079	0.947 ± 0.089	0.929 ± 0.087	0.876 ± 0.1	0.843 ± 0.074	0.894 ± 0.1	0.893 ± 0.075	0.859 ± 0.094
PGM1 (UniProt P36871)	1.03 ± 0.026	1.02 ± 0.034	0.9372 ± 0.0089	0.933 ± 0.056	0.918 ± 0.034	0.891 ± 0.015	0.867 ± 0.063	0.832 ± 0.062
UniProt P49748 and related entries	1.03 ± 0.025	1.03 ± 0.031	0.93 ± 0.018	0.931 ± 0.066	0.932 ± 0.036	0.899 ± 0.054	0.89 ± 0.019	0.861 ± 0.057
CCT5 (UniProt P48643)	1.02 ± 0.03	1.08 ± 0.1	1.1 ± 0.14	1.07 ± 0.16	1.08 ± 0.18	1.07 ± 0.2	1.07 ± 0.2	0.984 ± 0.19
AGL (UniProt P35573)	1.11 ± 0.13	1.18 ± 0.23	1.09 ± 0.19	1.21 ± 0.31	1.29 ± 0.37	1.24 ± 0.32	1.18 ± 0.28	1.26 ± 0.34
CETN2 (UniProt P41208)	0.769 ± 0.051	0.778 ± 0.013	0.963 ± 0.091	0.985 ± 0.045	0.959 ± 0.09	1.02 ± 0.044	0.929 ± 0.11	1.1 ± 0.1
UniProt P42285	1.09 ± 0.074	1.1 ± 0.089	1.09 ± 0.11	1.14 ± 0.14	1.23 ± 0.16	1.25 ± 0.15	1.24 ± 0.13	1.2 ± 0.12
UniProt P48059-5	1.04 ± 0.071	1.01 ± 0.077	0.969 ± 0.041	0.98 ± 0.092	0.985 ± 0.084	0.954 ± 0.072	0.97 ± 0.047	0.958 ± 0.066
EIF4A3 (UniProt P38919)	1.04 ± 0.086	1.08 ± 0.13	0.889 ± 0.054	0.928 ± 0.15	0.88 ± 0.099	0.869 ± 0.099	0.809 ± 0.028	0.777 ± 0.08
UniProt P45974 and related entries	1 ± 0.052	0.989 ± 0.047	0.992 ± 0.04	0.94 ± 0.038	0.931 ± 0.051	0.924 ± 0.046	0.941 ± 0.065	0.897 ± 0.062
ACTR1B (UniProt P42025)	1.05 ± 0.038	1.09 ± 0.064	1.06 ± 0.073	1.14 ± 0.15	1.14 ± 0.16	1.13 ± 0.13	1.1 ± 0.099	1.1 ± 0.14
NOTCH1 (UniProt P46531)	1.06 ± 0.016	1.03 ± 0.03	1.04 ± 0.058	1.07 ± 0.071	1.05 ± 0.043	1.03 ± 0.051	1.04 ± 0.042	0.991 ± 0.065
UniProt P42226 and related entries	1 ± 0.051	0.988 ± 0.054	0.96 ± 0.019	0.937 ± 0.041	0.928 ± 0.025	0.896 ± 0.026	0.952 ± 0.031	0.896 ± 0.049

Reprinted from above (2 entries):
Target	NP40-soluble protein abundance (concentration: 0.1mM)	NP40-soluble protein abundance (concentration: 0.5mM)	NP40-soluble protein abundance (concentration: 1mM)	NP40-soluble protein abundance (concentration: 2mM)	NP40-soluble protein abundance (concentration: 4mM)	NP40-soluble protein abundance (concentration: 6mM)	NP40-soluble protein abundance (concentration: 8mM)	NP40-soluble protein abundance (concentration: 10mM)
CETN2 (UniProt P41208)	0.769 ± 0.051	0.778 ± 0.013	0.963 ± 0.091	0.985 ± 0.045	0.959 ± 0.09	1.02 ± 0.044	0.929 ± 0.11	1.1 ± 0.1
UniProt P42285	1.09 ± 0.074	1.1 ± 0.089	1.09 ± 0.11	1.14 ± 0.14	1.23 ± 0.16	1.25 ± 0.15	1.24 ± 0.13	1.2 ± 0.12
